Results taken from publication doi:10.1101/2023.07.31.551310.
No constants are given. Whether binding was seen depends on the method and setting. Binding seen in cells or lysates may run through a third protein. These calls come from enrichment with a bait or labelling near it, and not all partners need be listed. A no says only that the protein was not detected with the bait.

Amino acid sequences for entries named in this document (tags omitted). A change or cut given only in a name is not applied to a line headed by its entry.
UniProt F4IXW2: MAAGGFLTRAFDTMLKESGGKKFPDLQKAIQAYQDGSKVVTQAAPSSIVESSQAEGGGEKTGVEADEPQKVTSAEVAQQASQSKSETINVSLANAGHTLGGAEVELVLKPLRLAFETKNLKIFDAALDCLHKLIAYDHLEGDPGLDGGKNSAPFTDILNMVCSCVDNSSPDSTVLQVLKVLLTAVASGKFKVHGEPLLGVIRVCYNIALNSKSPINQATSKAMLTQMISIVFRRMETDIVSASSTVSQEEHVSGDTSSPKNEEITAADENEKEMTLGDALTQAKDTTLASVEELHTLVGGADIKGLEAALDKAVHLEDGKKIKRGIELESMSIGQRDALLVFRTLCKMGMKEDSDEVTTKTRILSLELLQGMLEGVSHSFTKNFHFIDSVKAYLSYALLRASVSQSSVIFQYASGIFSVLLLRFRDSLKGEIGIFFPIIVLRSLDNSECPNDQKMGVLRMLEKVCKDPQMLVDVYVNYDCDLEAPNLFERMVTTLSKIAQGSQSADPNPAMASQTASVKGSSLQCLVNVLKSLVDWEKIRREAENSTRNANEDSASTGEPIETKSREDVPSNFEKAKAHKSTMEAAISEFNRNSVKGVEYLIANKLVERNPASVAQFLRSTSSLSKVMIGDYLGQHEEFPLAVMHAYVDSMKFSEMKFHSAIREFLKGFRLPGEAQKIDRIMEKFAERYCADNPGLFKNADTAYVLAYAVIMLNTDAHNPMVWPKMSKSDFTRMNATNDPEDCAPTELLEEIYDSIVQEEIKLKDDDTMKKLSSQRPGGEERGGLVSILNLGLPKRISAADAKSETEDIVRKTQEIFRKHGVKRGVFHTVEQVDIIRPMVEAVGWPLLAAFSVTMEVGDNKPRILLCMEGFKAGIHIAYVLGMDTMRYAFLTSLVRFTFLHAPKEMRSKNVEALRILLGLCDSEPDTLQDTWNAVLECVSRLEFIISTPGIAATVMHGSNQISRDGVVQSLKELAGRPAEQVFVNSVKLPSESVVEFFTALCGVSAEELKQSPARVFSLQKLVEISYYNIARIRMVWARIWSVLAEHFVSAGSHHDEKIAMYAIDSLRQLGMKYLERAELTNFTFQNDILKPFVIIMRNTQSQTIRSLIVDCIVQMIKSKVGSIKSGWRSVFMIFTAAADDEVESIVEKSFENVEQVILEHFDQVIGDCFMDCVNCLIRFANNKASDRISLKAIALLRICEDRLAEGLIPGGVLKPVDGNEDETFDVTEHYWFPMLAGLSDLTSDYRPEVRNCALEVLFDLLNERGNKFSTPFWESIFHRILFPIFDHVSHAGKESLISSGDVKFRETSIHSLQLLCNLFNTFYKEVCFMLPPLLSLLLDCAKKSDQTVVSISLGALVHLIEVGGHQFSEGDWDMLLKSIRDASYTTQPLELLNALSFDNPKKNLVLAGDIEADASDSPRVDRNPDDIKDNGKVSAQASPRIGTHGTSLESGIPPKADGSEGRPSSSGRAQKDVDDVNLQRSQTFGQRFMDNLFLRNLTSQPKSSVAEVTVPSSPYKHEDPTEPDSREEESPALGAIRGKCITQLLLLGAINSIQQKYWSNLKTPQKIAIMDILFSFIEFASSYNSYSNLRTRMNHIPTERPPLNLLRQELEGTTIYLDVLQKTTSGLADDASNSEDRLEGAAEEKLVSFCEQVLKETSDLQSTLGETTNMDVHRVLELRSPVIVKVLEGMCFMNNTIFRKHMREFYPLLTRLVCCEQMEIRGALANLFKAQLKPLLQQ
UniProt Q9LZX8: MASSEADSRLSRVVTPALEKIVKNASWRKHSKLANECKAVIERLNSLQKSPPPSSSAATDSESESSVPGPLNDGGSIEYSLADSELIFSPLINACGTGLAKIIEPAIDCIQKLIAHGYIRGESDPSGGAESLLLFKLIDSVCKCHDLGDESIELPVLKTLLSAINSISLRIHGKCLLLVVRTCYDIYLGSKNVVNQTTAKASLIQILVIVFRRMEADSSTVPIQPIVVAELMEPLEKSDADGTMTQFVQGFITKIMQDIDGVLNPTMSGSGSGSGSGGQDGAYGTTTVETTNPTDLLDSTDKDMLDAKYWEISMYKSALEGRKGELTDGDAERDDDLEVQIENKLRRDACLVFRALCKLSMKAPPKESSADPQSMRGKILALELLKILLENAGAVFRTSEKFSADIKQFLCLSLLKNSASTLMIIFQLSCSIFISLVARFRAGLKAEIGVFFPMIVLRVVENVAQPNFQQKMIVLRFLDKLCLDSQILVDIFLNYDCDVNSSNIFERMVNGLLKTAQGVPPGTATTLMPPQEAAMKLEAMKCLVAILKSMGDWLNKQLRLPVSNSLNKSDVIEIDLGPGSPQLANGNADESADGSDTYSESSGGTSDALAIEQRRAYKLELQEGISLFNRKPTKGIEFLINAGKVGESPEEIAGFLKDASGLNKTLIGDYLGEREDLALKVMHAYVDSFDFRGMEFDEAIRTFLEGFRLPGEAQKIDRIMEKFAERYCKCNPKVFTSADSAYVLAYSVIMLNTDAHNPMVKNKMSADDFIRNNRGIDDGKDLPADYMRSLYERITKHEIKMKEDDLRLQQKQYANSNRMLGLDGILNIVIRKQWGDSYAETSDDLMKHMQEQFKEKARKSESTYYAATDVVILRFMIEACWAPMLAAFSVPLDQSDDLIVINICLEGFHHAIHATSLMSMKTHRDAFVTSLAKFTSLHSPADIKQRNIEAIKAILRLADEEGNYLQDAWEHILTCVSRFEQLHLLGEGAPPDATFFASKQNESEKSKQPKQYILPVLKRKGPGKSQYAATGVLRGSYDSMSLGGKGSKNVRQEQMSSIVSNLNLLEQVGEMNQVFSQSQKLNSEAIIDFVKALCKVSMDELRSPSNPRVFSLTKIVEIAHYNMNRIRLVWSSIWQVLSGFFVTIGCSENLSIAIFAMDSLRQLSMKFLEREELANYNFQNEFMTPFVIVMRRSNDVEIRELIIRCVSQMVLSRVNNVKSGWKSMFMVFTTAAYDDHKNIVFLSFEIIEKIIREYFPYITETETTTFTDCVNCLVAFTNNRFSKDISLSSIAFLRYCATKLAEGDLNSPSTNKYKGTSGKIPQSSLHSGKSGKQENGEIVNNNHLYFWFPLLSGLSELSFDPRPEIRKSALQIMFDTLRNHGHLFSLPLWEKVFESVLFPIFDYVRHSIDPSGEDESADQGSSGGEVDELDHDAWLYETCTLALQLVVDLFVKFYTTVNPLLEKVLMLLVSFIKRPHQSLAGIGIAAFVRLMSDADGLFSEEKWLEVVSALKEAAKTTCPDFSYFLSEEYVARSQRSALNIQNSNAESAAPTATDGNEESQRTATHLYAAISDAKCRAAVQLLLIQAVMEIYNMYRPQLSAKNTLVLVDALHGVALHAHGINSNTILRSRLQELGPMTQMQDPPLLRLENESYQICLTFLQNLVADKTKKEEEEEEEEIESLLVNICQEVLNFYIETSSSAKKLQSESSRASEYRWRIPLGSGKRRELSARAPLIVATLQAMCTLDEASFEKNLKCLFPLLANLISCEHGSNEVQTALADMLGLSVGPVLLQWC
UniProt F4JSZ5: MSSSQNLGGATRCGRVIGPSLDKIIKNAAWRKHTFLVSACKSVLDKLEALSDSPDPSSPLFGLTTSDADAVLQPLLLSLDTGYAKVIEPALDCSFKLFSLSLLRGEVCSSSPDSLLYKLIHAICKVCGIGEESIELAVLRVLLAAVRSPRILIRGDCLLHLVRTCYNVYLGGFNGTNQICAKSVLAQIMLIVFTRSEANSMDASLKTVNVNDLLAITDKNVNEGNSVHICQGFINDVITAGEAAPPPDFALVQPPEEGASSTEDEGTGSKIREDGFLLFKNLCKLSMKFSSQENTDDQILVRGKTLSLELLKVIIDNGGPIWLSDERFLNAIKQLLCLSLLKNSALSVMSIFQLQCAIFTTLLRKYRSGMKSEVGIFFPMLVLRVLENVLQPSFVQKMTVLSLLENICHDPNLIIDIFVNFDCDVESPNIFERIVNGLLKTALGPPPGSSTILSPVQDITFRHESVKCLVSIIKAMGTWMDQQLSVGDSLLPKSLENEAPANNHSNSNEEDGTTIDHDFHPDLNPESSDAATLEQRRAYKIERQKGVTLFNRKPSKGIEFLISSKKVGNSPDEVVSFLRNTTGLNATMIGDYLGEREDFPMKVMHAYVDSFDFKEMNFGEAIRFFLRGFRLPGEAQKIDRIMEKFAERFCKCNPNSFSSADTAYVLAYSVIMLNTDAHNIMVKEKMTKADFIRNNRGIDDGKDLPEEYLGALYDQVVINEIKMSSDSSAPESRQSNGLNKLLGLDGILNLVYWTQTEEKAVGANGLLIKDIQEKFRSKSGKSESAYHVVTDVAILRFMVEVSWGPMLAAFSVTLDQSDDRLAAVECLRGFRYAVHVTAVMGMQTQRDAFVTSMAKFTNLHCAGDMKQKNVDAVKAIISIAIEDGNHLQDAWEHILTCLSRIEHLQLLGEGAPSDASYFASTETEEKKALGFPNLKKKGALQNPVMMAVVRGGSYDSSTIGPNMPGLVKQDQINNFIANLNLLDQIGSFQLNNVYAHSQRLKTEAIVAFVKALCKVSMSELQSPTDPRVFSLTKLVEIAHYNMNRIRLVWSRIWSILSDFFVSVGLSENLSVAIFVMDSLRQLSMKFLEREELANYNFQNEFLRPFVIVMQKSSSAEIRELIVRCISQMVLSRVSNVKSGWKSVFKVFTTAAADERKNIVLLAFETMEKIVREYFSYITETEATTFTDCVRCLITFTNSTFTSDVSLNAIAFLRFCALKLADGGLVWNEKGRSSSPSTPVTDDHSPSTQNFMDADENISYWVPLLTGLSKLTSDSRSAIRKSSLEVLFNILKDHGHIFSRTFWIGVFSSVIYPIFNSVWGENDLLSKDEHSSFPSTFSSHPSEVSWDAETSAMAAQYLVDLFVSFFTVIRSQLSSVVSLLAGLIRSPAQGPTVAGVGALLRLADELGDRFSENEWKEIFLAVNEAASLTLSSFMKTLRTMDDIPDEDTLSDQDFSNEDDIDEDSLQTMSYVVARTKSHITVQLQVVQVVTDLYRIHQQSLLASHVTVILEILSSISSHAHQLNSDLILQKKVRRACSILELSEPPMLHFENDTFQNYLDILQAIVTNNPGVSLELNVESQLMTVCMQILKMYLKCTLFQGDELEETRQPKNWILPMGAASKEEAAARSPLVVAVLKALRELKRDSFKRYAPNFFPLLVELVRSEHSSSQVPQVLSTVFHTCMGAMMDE
UniProt P36397: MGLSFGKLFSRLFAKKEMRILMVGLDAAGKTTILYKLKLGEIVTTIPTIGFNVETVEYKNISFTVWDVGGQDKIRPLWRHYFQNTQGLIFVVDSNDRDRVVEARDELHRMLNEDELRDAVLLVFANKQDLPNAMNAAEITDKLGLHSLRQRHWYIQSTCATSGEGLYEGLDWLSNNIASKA

B1: HLB1 (… TO LATRUNCULIN B1), tetratricopeptide repeat protein (protein, UniProt Q9FHY8 1-565)
chain: MADTVEEPQLQNGAAPAESETEQNPIPEPQLQTEPKLTGEIPEIEADLTPEEVQSEVTDAKPEEVQSEVKPEEVKTVVTDAKPEEAQSEVKPEEVQSVVTDTKPDLTDVDLSPGGSEEIPIRSTEVEQESTTSVLKKDDDGNKTFTMRELLSELKSEEGDGTPHSSASPFSRESASQPAENNPAMDLINRIQVNDEEGRSRQRVLAFAARKYASAIERNPDDHDALYNWALILQESADNVSPDSVSPSKDDLLEEACKKYDEATRLCPTLYDAYYNWAIAISDRAKIRGRTKEAEELWEQAADNYEKAVQLNWNSSQALNNWGLVLQELSQIVPAREKEKVVRTAISKFRAAIRLQFDFHRAIYNLGTVLYGLAEDTLRTGGSGNGKDMPPGELYSQSAIYIAAAHSLKPSYSVYSSALRLVRSMLPLPHLKVGYLTAPPVGNSLAPHSDWKRTEFELNHERLLQVLKPEPREMGRNLSGKAETMSTNVERKTVKVNITEIVSVTPCADLTLPPGAGLCIDTIHGPVFLVADSWESLDGWLDAIRLVYTIYARGKSDVLAGIITG
B2: MIN10 (14-3-3 KAPPA) (protein, UniProt P48348 1-248)
chain: MATTLSRDQYVYMAKLAEQAERYEEMVQFMEQLVSGATPAGELTVEERNLLSVAYKNVIGSLRAAWRIVSSIEQKEESRKNEEHVSLVKDYRSKVETELSSICSGILRLLDSHLIPSATASESKVFYLKMKGDYHRYLAEFKSGDERKTAAEDTMIAYKAAQDVAVADLAPTHPIRLGLALNFSVFYYEILNSSEKACSMAKQAFEEAIAELDTLGEESYKDSTLIMQLLRDNLTLWTSDMQEQMDEA
B3: 14-3-3 CHI (protein, UniProt P42643 1-267)
chain: MATPGASSARDEFVYMAKLAEQAERYEEMVEFMEKVAKAVDKDELTVEERNLLSVAYKNVIGARRASWRIISSIEQKEESRGNDDHVSLIRDYRSKIETELSDICDGILKLLDTILVPAAASGDSKVFYLKMKGDYHRYLAEFKSGQERKDAAEHTLTAYKAAQDIANSELAPTHPIRLGLALNFSVFYYEILNSPDRACNLAKQAFDEAIAELDTLGEESYKDSTLIMQLLRDNLTLWTSDMQDDVADDIKEAAPAAAKPADEQQS
B4: MIN2 (RAD23a) (protein, UniProt Q84L32 1-368)
chain: MKLTVKTLKGSHFEIRVLPTDTIMAVKKNIEDSQSKDNYPCGQQLLIHNGKVLKDETTLVENKVTEEGFLVVMLSKSKTASSAGPSSTQPTSTTTSTISSTTLAAPSTTQSIAVPASNSTPVQEQPTAQSDTYGQAASTLVSGSSIEQMVQQIMEMGGGSWDKETVTRALRAAYNNPERAVDYLYSGIPETVTIPATNLSGVGSGRELTAPPPSGGPNSSPLDLFPQEAVSDAAGGDLGTLEFLRGNDQFQQLRSMVNSNPQILQPMLQELGKQNPQLLRLIQENQAEFLQLLNEPYEGSDGDVDIFDQPDQEMPHSVNVTPEEQESIERLEAMGFDRAIVIEAFLSCDRNEELAANYLLEHSADFED

Experiments:
[1] = target: MIN7-GFP fusion protein (Arabidopsis) (UniProt F4IXW2); experiment: affinity purification with mass spectrometry; GFP-Trap A beads, 2 h at 4°C; detergent-solubilized (0.2% NP-40) total leaf extract of 1 μM flg22-treated min7/35S::MIN7-GFP plants; controls Col-0 and Col-0/35S::GFP; on-bead digestion, LC/MS/MS; three replicates
[2] = target: MIN7-GFP fusion protein (Arabidopsis) (UniProt F4IXW2); experiment: affinity purification with mass spectrometry; GFP-Trap A beads, 3 h at 4°C; TGN vesicle extract of flg22-treated min7/35S::MIN7-GFP plants; control Col-0; washed with buffer containing 0.1% NP-40; two replicates

Row | Molecule | binding [1] | binding [2]
1 | MIN13 (ARF-GEF, BIG2) (from UniProt Q9LZX8 1-1793) | binds | binds
2 | SEC7-like ARF-GEF (AT1G01960) (from UniProt Q9LPC5 1-1750) | – | binds
3 | SEC7-like ARF-GEF (AT4G38200) (from UniProt F4JSZ5 1-1687) | – | binds
4 | ARFA1c (from UniProt P36397) | binds | –
5 | B1 | binds | binds
6 | B2 | – | binds
7 | B3 | binds | –
8 | B4 | no binding | no binding
